Where a chain is given by its changes, count along the chain named. These are yes or no findings as the source states them, for the method shown. In cells and extracts the contact can be indirect. Some binding calls cover weakened binding; strength is not graded here.
Experiments:
[1] = biological target: ATG5, wild type, overexpressed (UniProt Q99J83); assay: co-IP; HEK-293T cells overexpressing both ATG5 and SMOX, with or without TGF-β1 as indicated
[2] = biological target: ATG5, wild type, overexpressed (UniProt Q99J83); assay: co-IP; mTECs overexpressing both ATG5 and SMOX, with or without TGF-β1
[3] = biological target: ATG5 (mouse (endogenous in mTECs)) (UniProt Q99J83); assay: co-IP; co-immunoprecipitation in mTECs of SMOX with ATG5, ATG7 and ATG3; which protein was precipitated is not told
[4] = biological target: T1, ATG7 (mouse (endogenous in mTECs)) (UniProt Q9D906); assay: as above
T1 sequence: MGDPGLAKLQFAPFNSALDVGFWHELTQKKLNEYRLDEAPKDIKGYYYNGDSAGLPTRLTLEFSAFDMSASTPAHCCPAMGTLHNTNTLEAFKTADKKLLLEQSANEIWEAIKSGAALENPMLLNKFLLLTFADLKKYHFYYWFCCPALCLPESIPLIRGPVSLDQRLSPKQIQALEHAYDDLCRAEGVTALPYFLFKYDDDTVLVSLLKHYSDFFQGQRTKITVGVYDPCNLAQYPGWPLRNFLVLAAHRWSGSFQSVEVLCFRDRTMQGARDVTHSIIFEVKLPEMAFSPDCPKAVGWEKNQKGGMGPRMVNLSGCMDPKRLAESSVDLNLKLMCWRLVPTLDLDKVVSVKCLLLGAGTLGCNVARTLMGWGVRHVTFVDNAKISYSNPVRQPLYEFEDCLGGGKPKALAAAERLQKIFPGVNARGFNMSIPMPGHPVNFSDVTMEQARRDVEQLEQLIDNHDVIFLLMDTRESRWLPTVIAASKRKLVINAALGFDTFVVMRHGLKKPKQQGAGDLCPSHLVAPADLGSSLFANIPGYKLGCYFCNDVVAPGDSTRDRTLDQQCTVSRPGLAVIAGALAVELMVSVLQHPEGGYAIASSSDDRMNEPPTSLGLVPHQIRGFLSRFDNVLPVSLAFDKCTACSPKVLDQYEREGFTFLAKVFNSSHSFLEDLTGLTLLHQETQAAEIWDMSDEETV

Amino acid sequences for entries named in this document (tags omitted).
UniProt Q9CPX6: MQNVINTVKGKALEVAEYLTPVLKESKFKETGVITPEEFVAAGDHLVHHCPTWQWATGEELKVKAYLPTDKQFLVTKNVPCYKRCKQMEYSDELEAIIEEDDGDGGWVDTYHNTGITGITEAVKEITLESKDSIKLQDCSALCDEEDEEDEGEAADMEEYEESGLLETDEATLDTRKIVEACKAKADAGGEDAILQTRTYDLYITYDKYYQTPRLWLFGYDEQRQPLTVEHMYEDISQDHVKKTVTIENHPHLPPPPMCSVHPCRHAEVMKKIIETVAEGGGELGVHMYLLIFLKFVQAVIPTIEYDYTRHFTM
UniProt Q99K82: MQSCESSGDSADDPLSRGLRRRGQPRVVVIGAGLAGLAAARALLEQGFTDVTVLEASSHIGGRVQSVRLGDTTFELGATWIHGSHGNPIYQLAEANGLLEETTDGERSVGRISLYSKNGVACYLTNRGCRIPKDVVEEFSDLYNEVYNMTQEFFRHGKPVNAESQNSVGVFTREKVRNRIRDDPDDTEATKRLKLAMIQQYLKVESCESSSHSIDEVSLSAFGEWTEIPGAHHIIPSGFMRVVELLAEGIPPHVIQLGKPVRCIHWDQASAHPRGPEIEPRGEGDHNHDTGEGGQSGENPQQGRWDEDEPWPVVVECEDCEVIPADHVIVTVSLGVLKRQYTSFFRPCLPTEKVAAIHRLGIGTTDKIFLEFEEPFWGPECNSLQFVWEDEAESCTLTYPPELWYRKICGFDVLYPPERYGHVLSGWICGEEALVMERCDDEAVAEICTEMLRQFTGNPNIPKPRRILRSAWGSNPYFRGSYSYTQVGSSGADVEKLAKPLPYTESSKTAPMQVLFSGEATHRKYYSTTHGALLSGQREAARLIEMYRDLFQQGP

[5] = biological target: ATG3 (mouse (endogenous in mTECs)) (UniProt Q9CPX6); assay: as above
[6] = biological target: T2, ATG5 E244A single-site mutation (SMut) (UniProt Q99J83); assay: co-IP; mTECs transfected with wild-type ATG5, ATG5 MMut or ATG5 SMut (E244A) plasmid
T2 sequence: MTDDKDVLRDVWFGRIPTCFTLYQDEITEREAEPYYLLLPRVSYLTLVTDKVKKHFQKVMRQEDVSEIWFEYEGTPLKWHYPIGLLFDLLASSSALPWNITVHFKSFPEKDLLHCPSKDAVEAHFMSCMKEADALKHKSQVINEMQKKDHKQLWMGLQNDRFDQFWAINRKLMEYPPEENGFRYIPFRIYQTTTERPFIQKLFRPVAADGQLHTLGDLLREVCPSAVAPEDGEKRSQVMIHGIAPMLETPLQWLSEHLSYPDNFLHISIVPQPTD

[7] = biological target: T3, ATG5 multisite-mutated (MMut) (UniProt Q99J83); assay: as above
T3 sequence: T2 sequence with T2A, D3A, R9A, D10A, V11A, D160A, R161A, H241A, M246A

[8] = biological target: ATG5, wild type, overexpressed (UniProt Q99J83); assay: as above

| binding [1] | binding [2] | binding [3] | binding [4] | binding [5] | binding [6] | binding [7] | binding [8] | Substance |
| --- | --- | --- | --- | --- | --- | --- | --- | --- |
| binds | binds | – | – | – | – | – | – | spermine oxidase (SMOX), overexpressed (from UniProt Q99K82 1-555) (enzyme) |
| – | – | binds | binds weakly | binds weakly | binds | no binding | binds | spermine oxidase (SMOX) (from UniProt Q99K82 1-555) (enzyme) |
